# Reference: PubChem BioAssay AID504467 (National Center for Advancing Translational Sciences (NCATS), 2011)
# Among all 330,000 compounds or so, about 7,700 (2.3%) were called active. Inconclusive results, whose numbers are uncertain, are shown with a selection of clear calls. Calls come from the whole dose curve; as a rule, active = well fitted inhibition curve with a large enough effect; inconclusive = small, poorly fitted or top-dose-only effect, or effect the other way; inactive = flat fitted curve, though single readings scatter. Where the call is inconclusive, the potency comes from a doubtful curve fit.
# Experiment: qHTS screen for small molecules that inhibit ELG1-dependent DNA repair in human embryonic kidney (HEK293T) cells expressing luciferase-tagged ELG1; note: nearly all actives have a fitted effect of over 55% in size
# Details: HEK293T ELG1-luciferase reporter, luminescence, 16 h, DNA damage induced by 5-fluorouridine; series mostly up to 46.1 µM
# Outline: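 Step one: seed 2,000 cells per well. Step two: pin-transfer compound or DMSO alongside 5-fluorouridine. Step three: incubate 16 hr, 37 °C, 5% CO2. Step four: add ONE-Glo, wait 30 min, read luminescence.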
# Potency is the fitted concentration of half-maximal effect.
row,SMILES,Potency
1,CCn1c(C)c(C(=O)c2ccccc2)c(C#N)c1C(=O)O,inactive
2,Nc1ccc(C#Cc2ccccc2)cc1,"inconclusive: 10 µM [activator, partial curve]"
3,Cc1cc(Cl)ccc1NC(=O)NC1CCN(S(=O)(=O)c2ccc(F)cc2)CC1,inactive
4,CC1(C)Cc2c(C#N)c(OCC(=O)c3ccc(Cl)cc3)nc(-c3ccco3)c2CO1,"inconclusive: 3.66 µM [inhibitor, partial curve, poor fit]"
5,CCOC(=O)c1ccccc1NC(=O)CN(c1ccccc1C)S(C)(=O)=O,inactive
6,CC(=O)C1=C(c2ccccc2)NC(=O)NC1c1ccc(O)c(O)c1 (stereo not drawn),inactive
7,CSC1=N/C(=C\c2ccc(Br)o2)C(=O)S1,inactive
8,CSc1ncc(CN2CCc3c([nH]c4ccccc34)C2c2cccc(C)n2)cn1 (stereo not drawn),"inconclusive: 16.4 µM [inhibitor, partial curve]"
9,Cc1cc(C(=O)Nc2ccncc2)ccc1[N+](=O)[O-],inactive
10,Cc1cccc(Cn2c(C)nc3ccc([N+](=O)[O-])cc3c2=O)c1,inactive
11,O=C(Nc1ccc(NC(=O)c2cccs2)cc1)c1ccccc1,"inconclusive: 14.6 µM [activator, partial curve]"
12,Clc1cc2cccnc2c2ncccc12,"inconclusive: 2.51 µM [inhibitor, partial curve, poor fit]"
13,Cc1noc(C)c1CCC(=O)N1CCCC(CCC(=O)NCc2ccc(F)c(F)c2)C1 (stereo not drawn),inactive
14,CCCCNCCOc1ccccc1-c1ccccc1,inactive
15,O=C1CC(c2ccccc2)CC(=O)C1=CN1CCCC1 (stereo not drawn),inactive
16,Cc1ccc2c(c1)[C@H]1[C@H](CO2)[C@H](c2ccccc2)[C@]2(C)C(=O)N(Cc3ccccc3)CC(=O)N12,"inconclusive: 18.3 µM [inhibitor, single point]"
17,Nc1nnc(SCCCOc2ccc(F)cc2)s1,inactive
18,COc1cc2c(cc1NC(=O)c1ccco1)CCCC2,"inconclusive: 9.2 µM [activator, partial curve]"
19,CCCC(=O)NC(=S)Nc1ccc(N2CCN(C(=O)c3cccs3)CC2)cc1,active: 16.4 µM
20,O=C(CN1C(=O)c2cccc3cccc1c23)Nc1ccc(S(=O)(=O)N2CCOCC2)cc1,"inconclusive: 18.4 µM [inhibitor, partial curve]"
21,O=C(CS(=O)(=O)c1cn(Cc2ccc(F)cc2)c2ccccc12)N1CCCCC1,"inconclusive: 14.6 µM [inhibitor, partial curve]"
22,O=C(CSCc1ccccc1)N/N=C/c1cc2c(cc1Br)OCO2,"inconclusive: 20.6 µM [inhibitor, partial curve]"
23,O=C(Nc1ccc(Br)cc1)c1ccc2c(c1)OCO2,"inconclusive: 2.31 µM [activator, full curve]"
24,C=CCNc1nc(Cl)nc(Nc2ccc(OC)cc2OC)n1,inactive

row,SMILES,Potency
1,CCCc1cc(=O)[nH]c(-n2[nH]c3c(c2=O)CCCC3)n1,"inconclusive: 14.1 µM [activator, single point]"
2,CC(CN1CCCCC1)OC(=O)c1ccc2c(c1)OCO2 (stereo not drawn),"inconclusive: 5.8 µM [activator, partial curve, poor fit]"
3,CCN(C(=O)c1cc2ccccc2o1)C12CC3CC(CC(C3)C1)C2,"inconclusive: 29.1 µM [inhibitor, single point]"
4,O=C(NCCOc1ccccc1)c1n[nH]c(=O)c2ccccc12,inactive
5,COC(=O)c1nc(NC(=O)c2ccccc2Cl)n[nH]1,"inconclusive: 29.1 µM [activator, single point]"
6,COc1cccc2c(=O)c3ccccc3oc12,"inconclusive: 29.1 µM [activator, single point]"
7,Cc1ccc2c(=O)n3c(nc2c1)C(Cc1ccccc1)NC(=O)c1cc(Cl)ccc1-3 (stereo not drawn),inactive
8,C=CCN1C(=O)c2oc3ccccc3c(=O)c2C1c1ccc(O)c(OC)c1 (stereo not drawn),"inconclusive: 13 µM [activator, partial curve, poor fit]"
9,CC1CC(=O)C2=C(C1)Nc1ccccc1N=C2 (stereo not drawn),inactive
10,COC(=O)C1=C(C)NC2=C(C(=O)CC(c3cccs3)C2)C1c1ccsc1 (stereo not drawn),"inconclusive: 29.1 µM [inhibitor, single point]"
11,Cc1ccc(Nc2nc(CSc3nnc(-c4cccnc4)n3-c3ccccc3C)cs2)cc1,inactive
12,CCCCN(CC)CCNC(=O)c1cc2c(=O)n(CC)c3ccccc3c2s1,"inconclusive: 18.3 µM [activator, partial curve]"
13,COc1cc(NS(=O)(=O)c2ccc(N/C=C\C(=O)c3ccc(F)cc3)cc2)nc(OC)n1,"inconclusive: 18.4 µM [activator, single point]"
14,COc1cc(C(=O)NNC(=O)c2nn(C)c(=O)c3ccccc23)cc(OC)c1OC,"inconclusive: 9.2 µM [inhibitor, partial curve, poor fit]"
15,COc1ccc(NC(=O)c2ccco2)cc1NC(=O)c1ccccc1F,inactive
16,C#CCn1c(S(=O)(=O)Cc2ccc(OC)cc2)nc(-c2ccccc2)c1-c1ccccc1,"inconclusive: 14.6 µM [inhibitor, partial curve, poor fit]"
17,Cc1ccc(OCC(=O)Nc2ccc(S(=O)(=O)N3CCCCC3)cc2)c([N+](=O)[O-])n1,"inconclusive: 29.1 µM [inhibitor, single point]"
18,Cc1cccc2c1cnn2C(=O)Nc1ccccc1Br,"inconclusive: 8.2 µM [activator, partial curve]"
19,Cc1[nH]nc2cn[nH]c12,active: 13 µM
20,Cc1ccc(OCC(=O)c2cc(C)n(Cc3cccs3)c2C)c([N+](=O)[O-])n1,"inconclusive: 7.3 µM [inhibitor, partial curve]"
21,CSc1ccccc1C(=O)NCCS(=O)(=O)N1CCN(c2ccc(F)cc2)CC1,"inconclusive: 23.1 µM [inhibitor, partial curve]"
22,CCOC(=O)NN1C(=O)c2ccccc2NC1c1ccc(OC)cc1OC (stereo not drawn),inactive
23,CCN(CC)C(=O)CSc1n[nH]c(=S)n1N,"inconclusive: 3.26 µM [inhibitor, partial curve, poor fit]"
24,COc1cc(/C=C2\CCCc3c2nc2ccccc2c3C(=O)O)cc(Br)c1O,inactive

# 4 entries from above, with tabs.
row	SMILES	Potency
4	O=C(NCCOc1ccccc1)c1n[nH]c(=O)c2ccccc12	inactive
9	CC1CC(=O)C2=C(C1)Nc1ccccc1N=C2 (stereo not drawn)	inactive
10	COC(=O)C1=C(C)NC2=C(C(=O)CC(c3cccs3)C2)C1c1ccsc1 (stereo not drawn)	inconclusive: 29.1 µM [inhibitor, single point]
15	COc1ccc(NC(=O)c2ccco2)cc1NC(=O)c1ccccc1F	inactive
